In PMC5682672:
No constants are given. Whether binding was seen depends on the method and setting. In cells and extracts the contact can be indirect. Some binding calls cover weakened binding; strength is not graded here.

Amino acid sequences for entries named in this document (tags omitted). Residues count along the entry.
UniProt Q15375, residues 28-998: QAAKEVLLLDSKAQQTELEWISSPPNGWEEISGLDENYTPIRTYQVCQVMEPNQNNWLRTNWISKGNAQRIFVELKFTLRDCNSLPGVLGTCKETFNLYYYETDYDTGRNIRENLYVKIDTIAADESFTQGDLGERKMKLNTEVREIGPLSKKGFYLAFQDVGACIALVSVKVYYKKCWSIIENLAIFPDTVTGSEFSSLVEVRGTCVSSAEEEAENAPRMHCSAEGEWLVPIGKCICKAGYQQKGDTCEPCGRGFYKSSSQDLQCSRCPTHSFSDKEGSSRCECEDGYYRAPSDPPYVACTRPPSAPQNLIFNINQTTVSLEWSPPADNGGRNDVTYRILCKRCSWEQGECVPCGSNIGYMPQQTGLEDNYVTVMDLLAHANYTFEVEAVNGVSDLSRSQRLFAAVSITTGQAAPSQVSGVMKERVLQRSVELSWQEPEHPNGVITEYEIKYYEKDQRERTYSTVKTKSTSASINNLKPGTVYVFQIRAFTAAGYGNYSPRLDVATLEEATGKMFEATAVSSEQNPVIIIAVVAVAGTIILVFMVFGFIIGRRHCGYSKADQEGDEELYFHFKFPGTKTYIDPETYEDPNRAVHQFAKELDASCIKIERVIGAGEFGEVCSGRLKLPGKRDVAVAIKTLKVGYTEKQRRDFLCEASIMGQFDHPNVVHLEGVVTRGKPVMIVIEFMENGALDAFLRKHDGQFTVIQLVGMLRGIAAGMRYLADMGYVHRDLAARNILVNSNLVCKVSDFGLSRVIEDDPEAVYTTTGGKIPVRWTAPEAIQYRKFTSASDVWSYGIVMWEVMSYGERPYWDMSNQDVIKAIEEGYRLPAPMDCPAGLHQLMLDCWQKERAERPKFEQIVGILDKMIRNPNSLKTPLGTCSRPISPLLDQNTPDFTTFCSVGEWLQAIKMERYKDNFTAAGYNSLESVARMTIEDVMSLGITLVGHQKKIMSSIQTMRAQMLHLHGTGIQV

Target: EphA7 receptor (human (endogenous in LNCaP)) (UniProt Q15375)
Test: co-IP; endogenous proteins in LNCaP cell lysates; cells lysed and immunoprecipitated with an EphA7-specific antibody (CST), western blot

B1: ephrinA5 ligand (ligand, UniProt P52803 21-203)
chain: QDPGSKAVADRYAVYWNSSNPRFQRGDYHIDVCINDYLDVFCPHYEDSVPEDKTERYVLYMVNFDGYSACDHTSKGFKRWECNRPHSPNGPLKFSEKFQLFTPFSLGFEFRPGREYFYISSAIPDNGRRSCLKLKVFVRPTNSCMKTIGVHDRVFDVNDKVENSLEPADDTVHESAEPSRGEN
**Q.** For B1, which binding is on record?
**A.** binds
